PubChem BioAssay AID1259254 | NCATS, 2017

Screen: 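Finding genes that stop cells copying their DNA twice in one cycle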 (primary screen)
System: human HCT116 colorectal cancer cells
Reagent: single siRNA against human genes
Duration: 3 days
Measurement: 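Nuclei stained with Hoechst and imaged; cell-cycle phase assigned by DNA content; G2 share scaled per plate, non-targeting siRNA 0%, GMNN siRNA 100%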
Direction: G2 robust z-score and G2 cells, % of GMNN control: higher = more G2 cells, more excess DNA replication
Hit rule: 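Active siRNAs have a G2 robust z of 5 or more median absolute deviations over the median, which in these data means about 38% or higher of GMNN control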
In all, the deposit lists about 59,000 reagents; below is a part drawn at random. About 1,550 of them (2.6%) were called active. 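G2 share is only a proxy for re-replication; each gene was hit by three separate siRNAs, and active genes were retested.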 A number with no mark means an inactive call. Reagents against one gene are numbered here. Not all columns of the deposit are shown. No sequences are given here. The record does not give: the amount of reagent.

MBD6 (methyl-CpG binding domain protein 6) #1
- G2 robust z-score: 3.3
- G2 cells, % of GMNN control: 26.2

MBD6 (methyl-CpG binding domain protein 6) #2
- G2 robust z-score: 0.117
- G2 cells, % of GMNN control: 3.79

MBD6 (methyl-CpG binding domain protein 6) #3
- G2 robust z-score: -0.347
- G2 cells, % of GMNN control: 0.529

CHD1L (chromodomain helicase DNA binding protein 1 like) #1
- G2 robust z-score: -0.721
- G2 cells, % of GMNN control: -2.1

CHD1L (chromodomain helicase DNA binding protein 1 like) #2
- G2 robust z-score: -0.572
- G2 cells, % of GMNN control: -1.06

CHD1L (chromodomain helicase DNA binding protein 1 like) #3
- G2 robust z-score: 2.49
- G2 cells, % of GMNN control: 20.5

SCD5 (stearoyl-CoA desaturase 5) #1
- G2 robust z-score: -1.01
- G2 cells, % of GMNN control: -4.16

SCD5 (stearoyl-CoA desaturase 5) #2
- G2 robust z-score: 0.238
- G2 cells, % of GMNN control: 4.64

SCD5 (stearoyl-CoA desaturase 5) #3
- G2 robust z-score: -0.14
- G2 cells, % of GMNN control: 1.98

PAQR6 (progestin and adipoQ receptor family member 6) #1
- G2 robust z-score: -1.08
- G2 cells, % of GMNN control: -4.64

PAQR6 (progestin and adipoQ receptor family member 6) #2
- G2 robust z-score: -0.371
- G2 cells, % of GMNN control: 0.354

PAQR6 (progestin and adipoQ receptor family member 6) #3
- G2 robust z-score: 0.695
- G2 cells, % of GMNN control: 7.86
